Assay results reported in PMC9243176, “Multifaceted regulation of the sumoylation of the Sgs1 DNA helicase” (The Journal of Biological Chemistry, 2022).
Results are given in words; binding and its absence hold for the method and conditions named. Sequences can lack the tags named with a protein.

Molecular target: T1, GST-Esc2-SLD2m (budding yeast) (UniProt Q06340)
T1 sequence: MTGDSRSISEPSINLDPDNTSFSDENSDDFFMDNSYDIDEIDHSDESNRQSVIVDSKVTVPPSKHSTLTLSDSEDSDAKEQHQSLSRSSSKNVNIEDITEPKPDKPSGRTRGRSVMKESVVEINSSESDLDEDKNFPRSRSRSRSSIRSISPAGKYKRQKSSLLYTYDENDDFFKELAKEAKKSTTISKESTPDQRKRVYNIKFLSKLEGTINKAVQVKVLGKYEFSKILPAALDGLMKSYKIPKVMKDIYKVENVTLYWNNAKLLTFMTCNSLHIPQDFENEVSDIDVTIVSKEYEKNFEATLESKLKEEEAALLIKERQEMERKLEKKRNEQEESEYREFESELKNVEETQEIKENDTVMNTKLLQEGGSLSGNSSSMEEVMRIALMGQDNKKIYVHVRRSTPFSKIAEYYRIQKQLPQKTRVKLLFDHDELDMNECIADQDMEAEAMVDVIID
Assay: pull-down; GST or GST-tagged Esc2 or variants (2.2 μM) incubated with 3.6 μM Ubc9 in T buffer (25 mM Tris-Cl pH 7.4, 10% glycerol, 0.5 mM EDTA, 0.01% Igepal, 1 mM DTT) with 80 mM KCl, 30 min at 4 °C; captured on Glutathione Sepharose 4B; SDS-PAGE, Coomassie blue stain; both purified

B1: Ubc9 (SUMO E2) (enzyme, budding yeast, UniProt P50623 1-157, looked up)
chain: MSSLCLQRLQEERKKWRKDHPFGFYAKPVKKADGSMDLQKWEAGIPGKEGTNWAGGVYPITVEYPNEYPSKPPKVKFPAGFYHPNVYPSGTICLSILNEDQDWRPAITLKQIVLGVQDLLDSPNPNSPAQEPAWRSFSRNKAEYDKKVLLQAKQYSK
notes: Ubc9, the SUMO E2 enzyme of budding yeast; source: E. coli, purified (previously published procedures)
binding: no binding (tested: 3.6 μM Ubc9 with 2.2 μM GST-Esc2-SLD2m)
